At least one compound was matched to its structure with a doubt left.
Tested on: EP4 mRNA in RCT-1 cells
Assay: EP4 mRNA expression (Northern blot) in RCT-1 cells
Format: cell-based, rat

## CC1=C(/C=C/C(C)=C/C=C/C(C)=C/C(=O)O)C(C)(C)CCC1 [retinoic acid]
  effect on EP4 mRNA levels: reduces the levels of EP4 mRNA
